Reference: patent US20260125476A1 (INTERVET, published 2026)
Changes are numbered by the printed parent chain. These are yes or no findings as the source states them, for the method shown. Some results given as binding are weak or reduced against the parent protein; the word gives no strength.

B1: Mouse-canine chimeric antibody 27G12 (antibody, V domains shown)
VH: QIQLVQSGPELKKPGETVKISCKASGYTFTTYGVSWVKQAPGKGLRWMGWINTYSGMPTYVDDFKGRFAFSLETSASTAFLQINNLKNEDTAIYFCARRGISFDYWGQGTTLTVSS
VL: DVLMTQTPLSLPVSLGDHASISCKSSQSIVYINGNTYLEWYLQKPGQSPKLLIYKVSKRFSGVPDRFSGSGSGTDFTLKISRVEAEDLGVYYCFQGSHVPWTFGGGTKLEIKR
notes: Mouse variable regions fused to canine constant heavy chain and canine kappa; HEK 293, protein A
B2: Mouse-canine chimeric antibody 22A11 (antibody, V domains shown)
VH: QVQLQQPGTELVKPGASVKLSCKASGYTFTSYWMHWVKQRPGQGLEWIGNINPSNGGTRFNEKFKNKATLTEDKSSSTAYMQLSSLTSEDSAVYYCARSNYGSGWAWFAYWGQGTLVTVSA
VL: DIQMNQSPSSLSASLGDTITITCHASQNINVWLSWYQQKPGNIPKLLIYKSSNLHTGVPSRFSGSGSGTGFTLTISSLQPEDIATYYCQQGQSYPWTFGGGTKLEIKR
notes: as for B1
B3: Mouse-canine chimeric antibody 39A11 (antibody, V domains shown)
VH: EVKLVESGGGLVQPGGSLSLSCATSGFTFSDYYMSWVRQSPGKALEWMGFIRNKANGYTTEYSASLKGRFTISRDNSQSILYLQMNVLRAEDSATYYCVRFGLMYYFDYWGQGTTLTVSS
VL: ENVLIQSPAIMSASPGEKVTMTCRASSSVSSSYLHWYQQKSGASPKLWIFSTSNLASGVPARFSGSGSGTSYSLTINSVEAEDAATYYCQQYSGLPLTFGGGTKLEIKR
notes: Mouse variable regions fused to canine constant heavy chain and canine kappa; HEK 293, protein A; also called chimera of 39A11
B4: Mouse-canine chimeric antibody 45A9 (antibody, V domains shown)
VH: QIQLVQSGPELKKPGETVKISCKASGYTFTNYGMNWVKQAPGKGLKWMGWINTYTGEPTYADDFKGRFAFSLETSASTAYLQINNLKNEDTATYFCARRGTYYRPWGQGTTLTVSS
VL: B1 VL with H18Q, K24R, I32S, N33H, L51V, K58N
notes: as for B1
B5: Mouse-canine chimeric antibody 110E3 (antibody, V domains shown)
VH: B4 VH with F68V, Y80F, T101V, Y102R, Y103L, R104D, P105Y
VL: B1 VL with H18Q, K24R, N33S, N35S, K58S
notes: as for B1
B6: Caninized c12B3L3H3 (antibody, V domains shown)
VH: EIQLVQSGGDLVKPGGSVRLSCKASGYTFTNYGMNWVKQAPGKGLQWMGWINTYTGEPTYADDFKGRFTFSLDNAKNTAYLQINSLRAEDTAVYFCARRSIYYPYWGQGTTLTVSS
VL: DVLMTQTPLSLSVSPGEPASISCRSSQSIVYSNGNTYLEWYLQKPGQSPKLLIYKVSNRFSGVPDRFSGSGSGTDFTLRISRVEADDAGVYYCFQGSHVPWTFGGGTKLELKR
notes: also called caninized 12B3 VL3/VH3
B7: Caninized c12B3L2H3 (antibody, V domains shown)
VH: B6 VH
VL: B6 VL with V2I, L3V, L42Q, L111I
notes: also called caninized 12B3
B8: Caninized c39A11L3H3 (antibody, V domains shown)
VH: EVKLVESGGDLVKPGGSLRLSCATSGFTFSDYYMSWVRQAPGKALEWMGFIRNKANGYTTEYSASLKGRFTISRDNAKNMLYLQMNSLRAEDTAVYYCVRFGLMYYFDYWGQGTTLTVSS
VL: ENVLTQSPASLSLSPGEKVTITCRASSSVSSSYLHWYQQKPGQSPKLWIFSTSNLASGVPSRFSGSGSGTSYSFTISSLEPEDVAVYYCQQYSGLPLTFGGGTKLELKR
notes: also called caninized 39A11 VL3/VH3
B9: Caninized c39A11L2H3 (antibody, V domains shown)
VH: B8 VH
VL: B8 VL with P15Q, G16E, S44A, S71D
notes: written here as L2H3; also called caninized 39A11
B10: Mouse monoclonal antibody 27G12 (antibody, V domains shown)
VH: B1 VH
VL: DVLMTQTPLSLPVSLGDHASISCKSSQSIVYINGNTYLEWYLQKPGQSPKLLIYKVSKRFSGVPDRFSGSGSGTDFTLKISRVEAEDLGVYYCFQGSHVPWTFGGGTKLEIK
B11: Mouse monoclonal antibody 39A11 (antibody, V domains shown)
VH: B3 VH
VL: ENVLIQSPAIMSASPGEKVTMTCRASSSVSSSYLHWYQQKSGASPKLWIFSTSNLASGVPARFSGSGSGTSYSLTINSVEAEDAATYYCQQYSGLPLTFGGGTKLEIK
B12: Caninized c12B3L3H2 (antibody, V domains shown)
VH: B6 VH with V18L, K38R, A79L, I83M
VL: B6 VL
B13: Mouse monoclonal antibody 45A9 (antibody, V domains shown)
VH: B4 VH
VL: B10 VL with H18Q, K24R, I32S, N33H, L51V, K58N
B14: Mouse monoclonal antibody 110E3 (antibody, V domains shown)
VH: B4 VH with F68V, Y80F, T101V, Y102R, Y103L, R104D, P105Y
VL: B10 VL with H18Q, K24R, N33S, N35S, K58S
B15: Mouse monoclonal antibody 22A11 (antibody, V domains shown)
VH: B2 VH
VL: DIQMNQSPSSLSASLGDTITITCHASQNINVWLSWYQQKPGNIPKLLIYKSSNLHTGVPSRFSGSGSGTGFTLTISSLQPEDIATYYCQQGQSYPWTFGGGTKLEIK

Assays:
[1] = target: canine CTLA-4 (cCTLA-4) recombinant protein (canine) (UniProt Q9XSI1); test: ELISA (FIG. 1 legend)
[2] = target: canine CTLA-4 (cCTLA-4) recombinant protein (canine) (UniProt Q9XSI1); test: blocking ELISA: cCTLA-4 coated at 200 ng/well, antibody dilutions mixed with 100 ng/well biotinylated canine CD86 (the blocked ligand), streptavidin-HRP, OD450/540 (Example 4)
[3] = target: canine CTLA-4 (cCTLA-4) recombinant protein (canine) (UniProt Q9XSI1); test: ELISA: cCTLA-4 coated at 200 ng/well, three-fold antibody dilutions, HRP anti-canine IgG Fc, OD450/540 (Example 3)
[4] = target: canine CTLA-4 (cCTLA-4) recombinant protein (canine) (UniProt Q9XSI1); test: blocking ELISA: cCTLA-4 coated at 200 ng/well, antibody dilutions mixed with 100 ng/well biotinylated canine CD80 (the blocked ligand), streptavidin-HRP, OD450/540 (Example 4)
[5] = target: canine CTLA-4 (cCTLA-4) recombinant protein (canine) (UniProt Q9XSI1); test: ELISA, coated cCTLA-4 200 ng/well, anti-canine IgG Fc-HRP
[6] = target: canine CTLA-4 (cCTLA-4) recombinant protein (canine) (UniProt Q9XSI1); test: ELISA on cCTLA-4 (FIG. 6); the chimera represents the parental antibody
[7] = target: canine CTLA-4 (cCTLA-4) recombinant protein (canine) (UniProt Q9XSI1); test: ELISA on coated cCTLA-4, OD450/540 ('xCTLA4 ELISA', Example 7)
[8] = target: canine CTLA-4 (cCTLA-4) recombinant protein (canine) (UniProt Q9XSI1); test: ELISA on cCTLA-4 (FIG. 6 legend)
[9] = target: canine CTLA-4 (cCTLA-4) recombinant protein (canine) (UniProt Q9XSI1); test: ELISA on cCTLA-4 (FIG. 6)
[10] = target: canine CTLA-4 (cCTLA-4) recombinant protein (canine) (UniProt Q9XSI1); test: ELISA and FACS screening of hybridoma clones

binding [1]	binding [2]	binding [3]	binding [4]	binding [5]	binding [7]	binding [10]	also measured	Binder
binds	binds	binds	binds	binds	–	–	–	B1
binds	binds	binds	binds	binds	–	–	–	B2
binds	binds	binds	binds	binds	binds	–	binding [6]: binds	B3
binds	binds	binds	binds	binds	–	–	–	B4
binds	binds	binds	binds	binds	–	–	–	B5
–	–	–	–	–	binds	–	binding [8]: binds; binding [9]: binds	B6
–	–	–	–	–	binds	–	–	B7
–	–	–	–	–	binds	–	binding [8]: binds; binding [9]: binds	B8
–	–	–	–	–	binds	–	–	B9
–	–	–	–	–	–	binds	–	B10
–	–	–	–	–	–	binds	–	B11
–	–	–	–	–	–	–	binding [8]: binds; binding [9]: binds	B12
–	–	–	–	–	–	binds	–	B13
–	–	–	–	–	–	binds	–	B14
–	–	–	–	–	–	binds	–	B15
